## Results of single-concentration screens

From ChEMBL document CHEMBL3988442, “University of Dundee, Small-Polar-MMV Screening Library” (2021).

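Whole-parasite assay of Trypanosoma brucei over 72 hours; the read-out is not stated. Concentration: 30 µM. The record gives no direction; compounds that gave an IC50 in retests scored well above the rest, so higher reads as stronger inhibition. Values scatter widely below zero; nearly all retest evidence comes from the higher of the two concentrations used. Of about 64,000 compounds tested this way, about 940 (1.5%) reached 50% or more in at least one test.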

Results are given as percent effect. How 0% and 100% were set is not recorded. Most values in the screen are low, and negative values occur. Compounds were drawn at random from those tested, without regard to their results.

structure: CCCc1ncc(CNC2(c3ccc(Cl)cc3)CC2)cn1
percent effect: 2.815

structure: CCOCCN1CCN(CCC(=O)N2CCCCC2)CC1
percent effect: -7.726

structure: O=C(C[S+]([O-])Cc1ccc(F)cc1)N1CCc2sccc2C1 (stereo unspecified)
percent effect: 15.95

structure: COc1ccc(C)cc1CN1CCn2cccc2C1C (stereo unspecified)
percent effect: 19.72

structure: [H][C@@]12CCN(C[C@@H]1CC)[C@@H](CNC(=O)Nc1ccccc1)C2
percent effect: -0.7803

structure: [H][C@]12CC[C@]([H])(CN(Cc3ccncc3)C1)N(C(=O)CCC1CCCC1)C2
percent effect: -39.6

structure: Cc1ccc(C(=O)Nc2nnc(C3CC3)s2)c(-n2cnnn2)c1C
percent effect: -3.166

structure: Cc1cc(-c2cccc(C(=O)O)c2)nc(C2CCN(C(C)C)CC2)n1
percent effect: -6.665

structure: CC(=O)NCC(=O)N1Cc2nccn2CC(CN2CCCC2=O)C1 (stereo unspecified)
percent effect: -16.1

structure: CC(C)Nc1ncnc2c1CCN(C(=O)CN(C)C)CC2
percent effect: -2.613

structure: CN(C)c1nccc(CNC(=O)NCc2ccco2)n1
percent effect: -112.4

structure: CC(C)[C@]1(O)CN(C(=O)COCC(N)=O)C[C@H]1C
percent effect: -40.48

structure: CCc1nc(C)c([C@H]2CN(C)C[C@@H]2C(=O)NCCc2cnccn2)[nH]1
percent effect: -5.307

structure: COc1ccc(CN2CCCCCC2c2cccs2)c(OC)c1 (stereo unspecified)
percent effect: -94.95

structure: CCc1ccc(CNC(=O)N2CCN(Cc3cc(C)no3)CC2)s1
percent effect: -40.21

structure: CCN1CCC(NC(=O)CN2CC(n3nc(C)cc3C)C2)CC1
percent effect: -1.572

structure: O=C(O)C1CCN(C[C@H]2CC[C@@H](Cc3ccc4c(c3)OCO4)O2)CC1
percent effect: -52.8

structure: CC(C)N1CCc2c(C(=O)N3CCOCC3)nn(C)c2C1.O=C(O)C(F)(F)F
percent effect: -87.63

structure: O=C(Cn1ccnc1)N(CCO)CCSc1ccc(Cl)cc1
percent effect: 9.734

structure: c1cnn(CC2CN(Cc3csc(-c4ccsc4)n3)CCO2)c1 (stereo unspecified)
percent effect: -18.67

structure: CSCC(=O)N1CCCN(c2ccccc2C)CC1
percent effect: -31.83

structure: CC(=O)c1cccc(NCC(=O)NC(N)=O)c1
percent effect: -0.01206

structure: Cn1cnc2c1C(COCC1CC1)CN(C(=O)c1ccsc1)C2 (stereo unspecified)
percent effect: -41.97

structure: CN(C)c1cccc(C(=O)N2CCC(c3n[nH]c(C4CC4)n3)CC2)c1
percent effect: 1.377

structure: Fc1ccc(OCCNCCn2cccn2)cc1
percent effect: -17.69

structure: O=C(O)C(F)(F)F.[H][C@@]12CCCO[C@]1([H])[C@H](N(C)Cc1ccco1)CN(C(=O)COC)C2
percent effect: -11.7

structure: CCc1noc(CN2CCN(C(=O)Cc3ccc(F)cc3)CC2)n1
percent effect: -13.94

structure: CCC(=O)Nc1ccc(OCC(=O)N(C)C(C)c2ccon2)cc1 (stereo unspecified)
percent effect: -1.39

structure: O=S(=O)(N(Cc1ccccn1)C1CC1)N1CCCC1c1ccco1 (stereo unspecified)
percent effect: 24.56

structure: CC(C)NC(=O)C1CCN(c2snc3ccccc23)CC1
percent effect: 6.407

structure: CO[C@@H]1CCC[C@@H](NC(=O)CCCn2cncn2)[C@H]1O
percent effect: -28.14

structure: CNc1cc2c(nn1)CCN(C(=O)c1ccc(-n3cccn3)nc1)C2
percent effect: -20.4

structure: Cn1cc(N2CCCC(Oc3ccc(F)cc3Cl)C2=O)cn1 (stereo unspecified)
percent effect: -11.96

structure: Cc1c(Cl)cccc1NC(=O)N1CCC2(CC1)NC(=O)CC2C(=O)O (stereo unspecified)
percent effect: -24.08

Some entries from above, unchanged:

For O=C(Cn1ccnc1)N(CCO)CCSc1ccc(Cl)cc1 the result was 9.734%.
For O=C(O)C(F)(F)F.[H][C@@]12CCCO[C@]1([H])[C@H](N(C)Cc1ccco1)CN(C(=O)COC)C2 the result was -11.7%.
For CCc1nc(C)c([C@H]2CN(C)C[C@@H]2C(=O)NCCc2cnccn2)[nH]1 the result was -5.307%.
For COc1ccc(CN2CCCCCC2c2cccs2)c(OC)c1 (stereo unspecified) the result was -94.95%.